Experimental data from patent US10907116B2, “Olfactive compositions comprising cyclohexyl-alkyl carbinols” (P2 SCIENCE, INC., priority 2015, dated 2021).
“Also recorded” adds a separate entry of the source.

Assay: Olfactory analysis of compound (I) on fragrance blotter
Details: presented on the fragrance blotter neat

## CC(C)C(O)C1CC=CCC1 (stereo not shown) [compound (I), 1-(cyclohex-3-en-1-yl)-2-methylpropan-1-ol]
  aroma (olfactory description): minty aroma that can be described as fresh, invigorating, and menthol-like; also recorded: fresh, minty, menthol-like smell; also recorded: minty aroma, which can be described as fresh, invigorating, and menthol-like
